Experimental data: PubChem BioAssay AID504834 (National Center for Advancing Translational Sciences (NCATS), 2011)
Hit rate of the full screen: of about 320,000 compounds, about 22,000 (6.9%) were called active. The inconclusive results got no clear call from the source; some entries with a clear call stand among them for comparison. Calls come from the whole dose curve; as a rule, active = well fitted inhibition curve with a large enough effect; inconclusive = small, poorly fitted or top-dose-only effect, or another doubt; inactive = no such curve, though single readings can be large or run the other way. A potency beside an inconclusive call is a rough fit, not a confirmed value.
% is set by controls: 0 for no effect and ±100 for the full control effect; potency is the fitted concentration of half-maximal effect.

Assay: Primary qHTS for delayed death inhibitors of the malarial parasite plastid, 96 hour incubation
Details: P. falciparum luciferase reporter growth; series mostly up to 28.7 µM; activity change, negative = inhibition: at the top concentration
Outline: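 Two parasite generations (96 h, 37 C, 5% CO2) of compound exposure in infected erythrocytes (0.05% parasitemia, 2% hematocrit). Luciferase-reporter P. falciparum; decreased luminescence indicates inhibited growth, aimed at apicoplast-acting delayed death.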
With `O=C(C1CC1c1ccccc1)N1CCOCC1` (stereo not given) the Potency was inconclusive: 18.5 µM [inhibitor, single point].
In the case of `COc1ccc(N2Cc3ccc(C(=O)N/N=C\c4ccc(O)cc4O)cc3C2)cc1`, the Potency is reported as inconclusive: 16.5 µM [inhibitor, single point].
With `Cc1cc2nnc(SC(C)C)n2c2ccccc12` the Potency was inconclusive: 0.522 µM [inhibitor, full curve, poor fit].
With `Cc1nc(C)c(C(=O)Nc2cccc(C)c2C)s1` the Potency was inconclusive: 10.4 µM [inhibitor, single point].
In the case of `COc1ccc(NC(=O)CC2(Cc3ccccc3)CCOC(C)(C)C2)cc1` (stereo not given), the Potency is reported as inconclusive: 11.7 µM [inhibitor, single point].
With `Cc1cc(C(=O)N/N=C/c2cc(Br)cc([N+](=O)[O-])c2O)c2ccccc2n1` the “activity change, negative = inhibition” value was inactive: -16.3%.
With `COC(=O)c1c(NC(=O)c2nn(C)cc2Cl)sc2c1CCCC2` the Potency was inconclusive: 2.62 µM [inhibitor, single point].
In the case of `Cn1cnc([N+](=O)[O-])c1Sc1ncn[nH]1`, the Potency is reported as inconclusive: 13.1 µM [inhibitor, partial curve, poor fit].
For `CCOC(=O)CSc1nc(C)nc2c1sc1nc(C)c(C(C)=O)c(-c3ccc(OC)cc3)c12`, the Potency was inconclusive: 10.4 µM [inhibitor, single point].
With `COCCN(CC(=O)Nc1cccc(C)c1C)C(=O)c1cc(-c2ccncc2)nc2ccccc12` the Potency was active: 8.28 µM.
With `COc1ccc(/C=N\NC(=O)CC(=O)Nc2cccc(Cl)c2)cc1OC` the Potency was inconclusive: 18.5 µM [inhibitor, single point].
With `COc1cccc(CNC(=O)c2ccccc2-c2ccccc2C(=O)O)c1` the Potency was inconclusive: 13.1 µM [inhibitor, single point].
In the case of `COC(=O)c1sc(NC(=O)CSc2nnc(Cn3nnc4ccccc43)n2C)nc1C`, the Potency is reported as inconclusive: 13.1 µM [inhibitor, single point].
With `CC(C)(C)c1ccc2c(c1)OC(C(=O)N/N=C/c1ccc([N+](=O)[O-])o1)CO2` (stereo not given) the Potency was active: 2.94 µM.
In the case of `Cc1ccc(-n2c(N)c(C(=O)Nc3ccccc3F)sc2=S)cc1C`, the Potency is reported as inconclusive: 18.5 µM [inhibitor, single point].
With `COc1cccc(OC)c1OCCOCCn1cnc2ccccc2c1=O` the Potency was inconclusive: 4.15 µM [inhibitor, partial curve, poor fit].
In the case of `Cc1ccn2c(C(=O)CSc3ccccc3Cl)c(C)nc2c1`, the Potency is reported as inconclusive: 1.65 µM [inhibitor, full curve].
With `O=S(=O)(NCCc1csc(-c2cccnc2)n1)c1ccc2c(c1)OCCO2` the Potency was inconclusive: 3.29 µM [inhibitor, partial curve, poor fit].
With `CC(=O)OC1N=C(c2ccccc2)c2ccccc2NC1=O` (stereo not given) the Potency was active: 14.7 µM.
In the case of `COc1ccc(-c2[nH]ncc2CN2CCN(Cc3cccs3)CC2)c(F)c1`, the “activity change, negative = inhibition” value is reported as inactive: 1.11%.
In the case of `COc1cc(C=O)ccc1OCc1cccc(Br)c1`, the “activity change, negative = inhibition” value is reported as inactive: -11.4%.
For `Cc1nc(NC(=O)Nc2ccc(Cl)cc2)sc1C`, the Potency was inconclusive: 3.29 µM [inhibitor, partial curve, poor fit].
In the case of `COc1ccccc1N1CC(C(=O)OC(C)C(=O)N2CCCc3ccccc32)CC1=O` (stereo not given), the Potency is reported as inconclusive: 11.7 µM [inhibitor, single point].
In the case of `O=C1CCCC2=C1C(c1ccc(Br)cc1)c1c([nH]c(=S)[nH]c1=O)N2` (stereo not given), the Potency is reported as inconclusive: 16.5 µM [inhibitor, partial curve, poor fit].
With `CCc1noc(C)c1C(=O)N1CCN(S(=O)(=O)c2ccc(C)cc2)CC1` the “activity change, negative = inhibition” value was inactive: 17.8%.
In the case of `COc1ccc(Cl)cc1C(=O)O/N=C(\N)c1ccc(Cl)cc1`, the Potency is reported as inconclusive: 14.7 µM [inhibitor, partial curve, poor fit].
With `COc1ccc(CNC(=O)CN(C)Cc2ccc(SC)cc2)cc1` the “activity change, negative = inhibition” value was inactive: 6.32%.
With `Fc1ccccc1-c1nc(N2CCCCC2)c2ccccc2n1` the Potency was inconclusive: 18.5 µM [inhibitor, single point].
With `COCCNC(=O)CCCn1c(=O)c2cc(OC)c(OC)cc2n(CC(=O)Nc2ccc(F)cc2)c1=O` the Potency was inconclusive: 18.5 µM [inhibitor, single point].
With `CC(C)(C)c1ccc(OCCCn2ccnc2)cc1` the Potency was inconclusive: 18.5 µM [inhibitor, single point].
With `CN(C)CCCN1C(=O)C(=O)/C(=C(/O)c2ccc3c(c2)OCCO3)C1c1ccco1` (stereo not given) the Potency was inconclusive: 10.4 µM [inhibitor, single point].
For `CC(=O)c1ccc(NC(=S)N(C)C2CCN(C)CC2)cc1`, the Potency was active: 2.08 µM.
With `O=C(NC1CCCC1)c1ccc(Cl)s1` the “activity change, negative = inhibition” value was inactive: 3.75%.
For `O=C(NCC(c1ccc(F)cc1)N1CCOCC1)c1nn(-c2ccccc2)c(=O)c2ccccc12` (stereo not given), the Potency was inconclusive: 18.5 µM [inhibitor, single point].
For `Cc1[nH]n(-c2ccc(F)cc2)c(=O)c1/C=N/c1sc2c(c1C#N)CCCC2`, the “activity change, negative = inhibition” value was inactive: 250%.
With `CCCN(CCC)C(=O)c1cc([N+](=O)[O-])cc2c1-c1ccc([N+](=O)[O-])cc1C2=C(C#N)C#N` the Potency was active: 11.7 µM.
In the case of `COc1ccc(Cc2nnc(N/N=C/c3ccc(Br)cc3)[nH]c2=O)cc1OC`, the Potency is reported as inconclusive: 4.15 µM [inhibitor, single point].
In the case of `CN(C(=O)COC(=O)/C=C/c1cn(-c2ccccc2)nc1-c1ccc2c(c1)OCCO2)C1CCS(=O)(=O)C1` (stereo not given), the Potency is reported as active: 11.7 µM.
For `Cc1ccc(CNS(=O)(=O)c2ccc3c(c2)n(C)c(=O)n3C)cc1`, the “activity change, negative = inhibition” value was inactive: 19.7%.
With `COCCCNC(=O)C1CCCN(S(=O)(=O)c2ccc(C)cc2)C1` (stereo not given) the Potency was inconclusive: 18.5 µM [inhibitor, single point].
With `Cn1ncc2c(N3CCN(c4ccc(Cl)c(Cl)c4)CC3)ncnc21` the Potency was inconclusive: 18.5 µM [inhibitor, single point].
With `CN1C(=O)C(Cc2cnc[nH]2)NC1=S` (stereo not given) the “activity change, negative = inhibition” value was inactive: -14%.
With `Cc1ccc2cc(CCNC(=O)c3cccc([N+](=O)[O-])c3)c(=O)[nH]c2c1C` the Potency was inconclusive: 10.4 µM [inhibitor, partial curve, poor fit].
In the case of `O=C(NCc1ccc(S(=O)(=O)NC2CCCCC2)s1)c1ccccc1`, the Potency is reported as inconclusive: 18.5 µM [inhibitor, single point].
In the case of `Cc1ccc(Cl)cc1NC(=O)Nc1cccs1`, the “activity change, negative = inhibition” value is reported as inactive: 5.26%.
In the case of `COc1cccc(-c2nnc3sc(-c4ccccn4)nn23)c1`, the Potency is reported as inconclusive: 2.94 µM [inhibitor, full curve, poor fit].
In the case of `COc1cc(NC(=O)C2CCN(S(=O)(=O)c3ccc(N4CCCC4=O)cc3)CC2)cc(OC)c1`, the Potency is reported as active: 9.28 µM.
With `Cc1ncc(CN2CCC(CO)(Cc3ccccc3)CC2)s1` the Potency was inconclusive: 10.4 µM [inhibitor, single point].
In the case of `CC(C(=O)Nc1ccc(Br)cc1C(=O)c1ccccc1)N1CCCCC1` (stereo not given), the Potency is reported as inconclusive: 0.117 µM [inhibitor, full curve, poor fit].
With `CC(=O)Nc1sc(NC(=O)c2ccco2)nc1-c1cccs1` the “activity change, negative = inhibition” value was inactive: 25%.
In the case of `CC(C)n1cc(/C(N)=N/O)c(=O)n(Cc2ccccc2)c1=O`, the Potency is reported as inconclusive: 18.5 µM [inhibitor, single point].
With `Cc1ccc(NC(=O)CN(C)C(=O)C(c2ccccc2)c2ccccc2)cc1` the “activity change, negative = inhibition” value was inactive: -9.94%.
With `COC(=O)C1=C(C)N(Cc2ccccc2)C(=S)N[C@H]1c1cccc(F)c1` the Potency was inconclusive: 0.0033 µM [inhibitor, full curve, poor fit].
In the case of `CC(C)c1nc(SCc2c(F)cccc2Cl)c2c(=O)n(C)c(=O)n(C)c2n1`, the Potency is reported as inconclusive: 18.5 µM [inhibitor, single point].
In the case of `COc1ccc(N(C)C(=O)c2onc3c2CCCC3)cc1`, the “activity change, negative = inhibition” value is reported as inactive: 1.27%.
In the case of `Nc1ccc(C2(c3ccc(N)cc3)OC(=O)c3ccccc32)cc1`, the Potency is reported as inconclusive: 10.4 µM [inhibitor, single point].
For `O=C(COC(=O)CCOc1ccccc1)NCc1ccco1`, the “activity change, negative = inhibition” value was inactive: 1.6%.
For `CC(=O)c1c(C)[nH]c(C(=O)OCC(=O)N2CCc3ccccc3C2)c1C`, the Potency was inconclusive: 6.57 µM [inhibitor, single point].
For `O=C(NCc1ccc2c(c1)OCO2)c1cnc2ccccn2c1=O`, the Potency was inconclusive: 11.7 µM [inhibitor, partial curve, poor fit].
For `Cc1cccc(C(=O)OCC(=O)N2CCCC2=O)c1O`, the Potency was inconclusive: 20.8 µM [inhibitor, single point].
In the case of `Cc1cc(C)n(-c2nnc(C)n2NS(=O)(=O)c2ccc(F)cc2)n1`, the Potency is reported as inconclusive: 20.8 µM [inhibitor, partial curve, poor fit].
For `O=S1(=O)CCOCCN1Cc1ccc(Cl)cc1Cl`, the Potency was inconclusive: 0.0026 µM [inhibitor, full curve, poor fit].
For `COc1ccc(/C(N)=N/OC(=O)Cc2ccc(C)cc2)cc1OC`, the “activity change, negative = inhibition” value was inactive: 24.8%.
In the case of `CS(=O)(=O)N(Cc1ccccc1)c1ccc(C(=O)Nc2ccccc2Sc2ccccc2)cc1`, the Potency is reported as active: 14.7 µM.
For `CCOc1ccc(N(CC(=O)NC(C(C)C)C(C)C)S(=O)(=O)c2ccc(OC)c(OC)c2)cc1`, the “activity change, negative = inhibition” value was inactive: -4.08%.
For `CCOc1ccc(OCC)c(S(=O)(=O)n2cnc(C)c2)c1`, the “activity change, negative = inhibition” value was inactive: 34.5%.
For `O=C(Nc1ccc(Oc2ccccc2)cc1)c1ccc(Cn2c(=O)[nH]c3ccsc3c2=O)cc1`, the Potency was active: 13.1 µM.
For `CC(C)(C)C(=O)Nc1ccc(C(=O)Nc2cccc(Oc3ccc(C(=O)O)c(C(=O)O)c3)c2)cc1`, the “activity change, negative = inhibition” value was inactive: -23.1%.
For `CCOC(=O)c1c(NC(=O)c2noc3c2CCCC3)sc(C)c1C`, the Potency was inconclusive: 10.4 µM [inhibitor, single point].
In the case of `COc1cccc(OCCOc2cccc(/C=N/n3cnnc3)c2)c1`, the Potency is reported as inconclusive: 0.828 µM [inhibitor, full curve, poor fit].
